Results: patent US20230270754A1, “COMBINATION THERAPY FOR INHALATION ADMINISTRATION” (Chemo Research, S.L., priority 2020, published 2023)

Key:
[1] = APSD by NGI, Example 2 Trimbow pMDI vs soft mist inhaler; assay type: physicochemical
Description: The in vitro aerodynamic assessment was carried using a next generation impactor, NGI (Copley Scientific Ltd), equipped with a mouthpiece adapter for the insertion of the inhaler, an induction port and an internal filter holder (IFH) to capture the smaller particles. The product was tested as per procedure detailed in the European pharmacopoeia chapter 2.9.18 (apparatus E) and US Pharmacopeia chapter <601> (apparatus 6) for Soft Mist Inhalers.
The NGI was cooled to 5° C. for at least 75 min. The cooling chamber was then opened and, after 30 minutes, the NGI was connected to a HCP5 vacuum pump (Copley Scientific Ltd). […]
After the required actuations, the particles deposited on the different surfaces of the impactor were extracted using a suitable diluent (methanol) and with the help of a Gentle Rocker (Copley Scientific Ltd). Active ingredients were then quantified by HPLC, with the same methods used for the Example 1.
Data analysis. The NGI results were plotted against the stage cut-off diameter as the mass recovered from the induction port to the filter. Fine particle fraction (FPF %), mass median aerodynamic diameter (MMAD), fine particle dose (FPD) were determined from the analysis of the NGI data.
(§1) Results are expressed as the mean value of two NGIs analysis.

[2] = APSD by NGI, Example 4 budesonide/formoterol 70% vs 96% ethanol, soft mist inhaler; assay type: physicochemical; settings: Formulation 2 (96% EtOH)
Description: An Isocratic (1.0 mL/min), HPLC-UV detection (Budesonide wavelength: 240 nm, Formoterol Fumarate wavelength: 214 nm) was employed with a Mobile Phase composed of 50/50 v/v ACN/0.1% Formic Acid with a C18 column (Hypersil BDS, 250×4.6 mm, 5 μm). External Formoterol Fumarate and Budesonide standards prepared in the method diluent (75/25 v/v MeOH/water) were used to quantify the amount of active ingredient present in the sample prepared in the same diluent using the response factor of Standard and Sample solutions. Typical System Suitability Criteria applies as per USP <621> requirements.
For the APSD evaluation Formulation 1 and 2 were filled into cartridges compatible with a soft mist inhaler (Respimat®). The in vitro aerodynamic particle size distribution of both formulations was evaluated using an impactor, the next generation impactor, NGI (Copley Scientific Ltd) equipped with a mouthpiece adapter for the insertion of the inhaler, an induction port and an internal filter holder (IFH) to capture the smaller particles. […]
After the required actuations, the particles deposited on the different surfaces of the impactor were extracted using a suitable diluent (75/25 v/v MeOH/water) and with the help of a Gentle Rocker (Copley Scientific Ltd). Active ingredients were then quantified by HPLC as described above. […]
as §1

Compound `COc1ccc(C[C@@H](C)NC[C@H](O)c2ccc(O)c(NC=O)c2)cc1.O.O.O=C(O)/C=C/C(=O)O` (racemic) [Formoterol Fumarate] has an MMAD ([1]; Soft Mist Inhaler (1 actuation), triple combination in 96% ethanol) of 1.2 μm, an MMAD ([1]; Trimbow pMDI (2 actuations)) of 1.2 μm and an MMAD [2] of 1.1 μm.
